Assay results as given in publication PMC4029619.
These are yes or no findings as the source states them, for the method shown. In cells and extracts the contact can be indirect.

Molecular target: T1, Orbit, Drosophila ortholog of the MT plus-end tracking protein CLASP (endogenous, detected with anti-Orbit antibody) (Drosophila (endogenous in spermatocytes)) (UniProt Q9NBD7)
T1 sequence: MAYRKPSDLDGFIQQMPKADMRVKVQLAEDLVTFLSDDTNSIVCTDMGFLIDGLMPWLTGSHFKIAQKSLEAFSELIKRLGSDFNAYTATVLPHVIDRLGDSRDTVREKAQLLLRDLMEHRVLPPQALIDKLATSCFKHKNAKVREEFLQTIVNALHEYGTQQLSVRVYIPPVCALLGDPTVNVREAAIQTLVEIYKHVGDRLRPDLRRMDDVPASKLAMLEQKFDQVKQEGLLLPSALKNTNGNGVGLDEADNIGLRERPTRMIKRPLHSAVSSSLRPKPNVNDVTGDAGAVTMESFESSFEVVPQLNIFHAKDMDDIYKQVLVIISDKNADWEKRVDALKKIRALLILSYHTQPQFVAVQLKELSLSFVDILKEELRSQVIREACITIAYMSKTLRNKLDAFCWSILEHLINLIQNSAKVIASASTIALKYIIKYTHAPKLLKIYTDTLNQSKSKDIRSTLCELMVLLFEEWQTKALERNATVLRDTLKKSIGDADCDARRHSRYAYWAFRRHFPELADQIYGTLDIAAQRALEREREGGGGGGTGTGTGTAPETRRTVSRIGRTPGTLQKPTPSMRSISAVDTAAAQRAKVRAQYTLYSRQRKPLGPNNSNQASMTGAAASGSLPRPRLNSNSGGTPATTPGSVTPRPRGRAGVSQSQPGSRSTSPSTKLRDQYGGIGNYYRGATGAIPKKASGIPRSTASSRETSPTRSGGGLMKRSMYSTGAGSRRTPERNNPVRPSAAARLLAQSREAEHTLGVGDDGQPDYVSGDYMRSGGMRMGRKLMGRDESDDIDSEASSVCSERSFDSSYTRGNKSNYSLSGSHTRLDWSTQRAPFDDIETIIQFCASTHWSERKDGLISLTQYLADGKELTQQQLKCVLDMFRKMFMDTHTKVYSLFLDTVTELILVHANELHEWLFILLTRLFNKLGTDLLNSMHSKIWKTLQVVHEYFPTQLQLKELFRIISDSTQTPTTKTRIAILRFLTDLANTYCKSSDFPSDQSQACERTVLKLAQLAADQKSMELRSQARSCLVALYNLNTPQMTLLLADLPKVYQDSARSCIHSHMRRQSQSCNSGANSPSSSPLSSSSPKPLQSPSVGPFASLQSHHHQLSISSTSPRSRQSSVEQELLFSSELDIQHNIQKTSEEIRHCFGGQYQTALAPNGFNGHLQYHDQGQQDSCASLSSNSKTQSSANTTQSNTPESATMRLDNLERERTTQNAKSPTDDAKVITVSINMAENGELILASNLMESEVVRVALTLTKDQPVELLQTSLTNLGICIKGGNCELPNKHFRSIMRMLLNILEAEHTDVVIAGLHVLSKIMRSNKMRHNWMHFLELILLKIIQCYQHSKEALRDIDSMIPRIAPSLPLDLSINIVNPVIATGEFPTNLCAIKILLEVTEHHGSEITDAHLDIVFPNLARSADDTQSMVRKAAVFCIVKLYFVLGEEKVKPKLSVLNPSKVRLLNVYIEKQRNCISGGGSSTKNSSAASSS
Assay: proximity ligation; in situ PLA (Duolink kit) on fixed Drosophila primary spermatocytes, late anaphase to telophase I; one partner detected by its own antibody, the GFP-tagged partner by anti-GFP; signal means within 40 nm

binding: no binding
Substance: Pav, Drosophila kinesin-6 protein
